The experiment addresses Smad7 (human (endogenous in LX-2)) (UniProt O15105). Nature of the experiment: co-IP; LX-2 cell lysates incubated with anti-Smad7 at 4°C for 6 h, then Protein A/G agarose beads overnight; blots of the precipitate; cells treated with or without 5 ng/ml TGF-β1 along with 1 mg/ml CKI for 12 h.

The chains behind the UniProt entries cited, without tags or fusion partners.
UniProt O15105: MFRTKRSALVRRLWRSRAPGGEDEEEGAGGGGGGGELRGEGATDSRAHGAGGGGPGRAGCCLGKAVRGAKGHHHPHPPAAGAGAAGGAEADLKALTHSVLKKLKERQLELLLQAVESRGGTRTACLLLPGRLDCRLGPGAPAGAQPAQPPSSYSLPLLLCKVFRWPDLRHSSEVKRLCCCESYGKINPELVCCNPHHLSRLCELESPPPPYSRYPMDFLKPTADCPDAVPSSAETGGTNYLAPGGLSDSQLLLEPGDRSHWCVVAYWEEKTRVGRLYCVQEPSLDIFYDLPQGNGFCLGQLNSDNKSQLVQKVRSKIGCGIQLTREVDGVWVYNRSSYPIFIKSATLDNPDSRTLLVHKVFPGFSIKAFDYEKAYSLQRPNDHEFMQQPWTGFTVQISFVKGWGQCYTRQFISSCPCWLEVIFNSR
UniProt Q9HAU4: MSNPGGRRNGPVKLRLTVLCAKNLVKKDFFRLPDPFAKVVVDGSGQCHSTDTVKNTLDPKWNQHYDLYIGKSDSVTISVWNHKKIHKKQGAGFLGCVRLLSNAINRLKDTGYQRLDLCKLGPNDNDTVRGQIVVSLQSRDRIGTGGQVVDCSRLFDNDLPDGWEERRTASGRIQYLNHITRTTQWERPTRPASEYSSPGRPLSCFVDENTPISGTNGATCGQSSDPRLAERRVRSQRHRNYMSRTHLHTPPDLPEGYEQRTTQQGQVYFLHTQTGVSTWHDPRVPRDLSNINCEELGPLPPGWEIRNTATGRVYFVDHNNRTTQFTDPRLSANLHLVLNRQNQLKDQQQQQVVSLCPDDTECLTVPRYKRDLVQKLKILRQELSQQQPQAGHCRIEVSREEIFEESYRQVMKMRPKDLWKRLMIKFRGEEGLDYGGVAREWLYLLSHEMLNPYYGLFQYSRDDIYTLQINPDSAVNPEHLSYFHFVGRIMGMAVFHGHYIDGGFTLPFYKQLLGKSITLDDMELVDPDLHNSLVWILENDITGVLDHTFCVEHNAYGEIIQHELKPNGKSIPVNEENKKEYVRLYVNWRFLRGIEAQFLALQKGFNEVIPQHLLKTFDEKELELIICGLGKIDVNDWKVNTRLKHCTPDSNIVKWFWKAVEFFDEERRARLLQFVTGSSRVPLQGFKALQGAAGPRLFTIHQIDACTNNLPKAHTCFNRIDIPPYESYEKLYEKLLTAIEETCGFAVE

The values below come from publication PMC8255064.

No constants are given. Whether binding was seen depends on the method and setting. In cells and extracts the contact can be indirect. Some results given as binding are weak or reduced against the parent protein; the word gives no strength.

Turning to Smurf2 (from UniProt Q9HAU4 1-748), the binding entry is given as “binds”.

B1: TGF-β receptor type 1 (receptor, UniProt P36897 34-503)
chain: LQCFCHLCTKDNFTCVTDGLCFVSVTETTDKVIHNSMCIAEIDLIPRDRPFVCAPSSKTGSVTTTYCCNQDHCNKIELPTTVKSSPGLGPVELAAVIAGPVCFVCISLMLMVYICHNRTVIHHRVPNEEDPSLDRPFISEGTTLKDLIYDMTTSGSGSGLPLLVQRTIARTIVLQESIGKGRFGEVWRGKWRGEEVAVKIFSSREERSWFREAEIYQTVMLRHENILGFIAADNKDNGTWTQLWLVSDYHEHGSLFDYLNRYTVTVEGMIKLALSTASGLAHLHMEIVGTQGKPAIAHRDLKSKNILVKKNGTCCIADLGLAVRHDSATDTIDIAPNHRVGTKRYMAPEVLDDSINMKHFESFKRADIYAMGLVFWEIARRCSIGGIHEDYQLPYYDLVPSDPSVEEMRKVVCEQKLRPNIPNRWQSCEALRVMAKIMRECWYANGAARLTALRIKKTLSQLSQQEGIKM
Take B1: the binding result is listed as “binds”.
